Paper doi:10.1101/049148
These are yes or no findings as the source states them, for the method shown. Sequences can lack the tags named with a protein.

Target: T1, GST-Snf7 (budding yeast (W303 chromosomal DNA)) (UniProt P39929)
T1 sequence: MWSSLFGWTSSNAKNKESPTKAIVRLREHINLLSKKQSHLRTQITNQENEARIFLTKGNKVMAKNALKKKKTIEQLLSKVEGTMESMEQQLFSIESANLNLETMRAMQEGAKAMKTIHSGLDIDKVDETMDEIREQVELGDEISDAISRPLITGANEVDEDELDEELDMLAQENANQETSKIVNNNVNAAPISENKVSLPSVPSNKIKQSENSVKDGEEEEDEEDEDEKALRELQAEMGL
Test: pull-down

binding: no binding
B1: recombinant heh2(1-308)-His6 (domain or fragment, UniProt Q03281 1-308)
chain: MDHRNLDPKTLKVSQLRRVLVENDVAFPANARKPVLVKLFEEKVRQRLQSSPEASKVRTSIQKVVKSGAKNADRKKTLKSKKLESSSSESKTVKDENVETNKRKREQISTDNEAKMQIQEEKSPKKKRKKRSSKANKPPESPPQSKSDGKATSADLTSELETVEELHKKDSSDDKPRVKELPKPELPNLKVSNEFLAQLNKELASAATENYDHSIKSTDLSSIRIETEEPVGPSTGAETRNESEVMENINLEVQPEVKEAKEELTKISETFDNQDEEDTSRLSSKKNIRSPKGRTRHFIANKTKRGID
